This note sets out measurements from paper PMC8892516, “Intragenic suppressors unravel the role of the SCREAM ACT-like domain for bHLH partner selectivity in stomatal development” (Proceedings of the National Academy of Sciences of the …, 2022).

Residue numbers refer to the chain shown, from its start. Numbers in names are those of the source. Results are given in words; binding and its absence hold for the method and conditions named. For some of these results: Binding can be weak; no strength is given. Sequences can lack the tags named with a protein. For some of these results: Binding seen in cells or lysates may run through a third protein.

Test [1] deals with T1, MUTE fused to the DNA binding domain (Arabidopsis thaliana) (UniProt Q9M8K6).
T1 sequence: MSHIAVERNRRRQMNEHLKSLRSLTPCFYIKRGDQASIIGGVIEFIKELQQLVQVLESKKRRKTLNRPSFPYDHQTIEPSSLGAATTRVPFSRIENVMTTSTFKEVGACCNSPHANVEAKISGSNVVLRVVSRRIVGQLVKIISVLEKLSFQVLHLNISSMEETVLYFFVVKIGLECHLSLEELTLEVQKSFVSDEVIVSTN
Nature of the test: two-hybrid; Matchmaker 3 system, yeast AH109; DNA binding domain fusions as bait, activation domain fusions as prey; SD -Trp -Leu -His with 0.1, 0.5 and 1 mM 3-amino-1,2,4-triazole.

Test [2] deals with T2, FAMA-nYFP (Arabidopsis thaliana) (UniProt Q56YJ8).
T2 sequence: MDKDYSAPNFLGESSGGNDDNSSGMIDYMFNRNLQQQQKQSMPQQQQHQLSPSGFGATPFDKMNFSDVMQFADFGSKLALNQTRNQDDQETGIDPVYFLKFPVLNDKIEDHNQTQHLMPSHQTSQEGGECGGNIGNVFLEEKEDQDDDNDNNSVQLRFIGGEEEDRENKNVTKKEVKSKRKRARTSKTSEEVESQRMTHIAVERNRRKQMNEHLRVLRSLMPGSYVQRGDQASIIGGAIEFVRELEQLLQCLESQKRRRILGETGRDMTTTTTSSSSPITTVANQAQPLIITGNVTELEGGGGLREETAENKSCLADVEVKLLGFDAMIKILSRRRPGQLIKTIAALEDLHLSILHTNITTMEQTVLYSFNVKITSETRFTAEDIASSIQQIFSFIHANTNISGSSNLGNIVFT
The experiment in a line: split reporter; BiFC, nYFP and cYFP fusions coinfiltrated with p19 into N. benthamiana leaves, confocal imaging 2 d after infiltration.

Test [3] has as its target T3, SPCH-nYFP (Arabidopsis thaliana) (UniProt Q700C7).
T3 sequence: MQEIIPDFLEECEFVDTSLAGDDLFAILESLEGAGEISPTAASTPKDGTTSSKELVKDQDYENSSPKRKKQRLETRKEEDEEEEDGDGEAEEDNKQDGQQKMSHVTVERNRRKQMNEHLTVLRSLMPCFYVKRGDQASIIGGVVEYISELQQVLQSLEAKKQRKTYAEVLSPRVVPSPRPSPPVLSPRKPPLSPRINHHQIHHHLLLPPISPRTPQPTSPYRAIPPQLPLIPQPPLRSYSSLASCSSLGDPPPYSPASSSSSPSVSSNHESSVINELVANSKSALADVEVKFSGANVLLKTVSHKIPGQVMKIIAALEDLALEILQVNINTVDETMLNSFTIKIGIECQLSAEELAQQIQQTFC
The test is described as above.

In test [4] the target is T4, MUTE-nYFP (Arabidopsis thaliana) (UniProt Q9M8K6).
T4 sequence: T1 sequence
The test is described as above.

Test [5] deals with scrm-DΔC-cYFP (Arabidopsis thaliana) (UniProt Q9LSE2). The experiment in a line: split reporter; BiFC; N. benthamiana leaves co-infiltrated with nYFP and cYFP fusions and p19; confocal imaging 2 d after infiltration.
Test [6] addresses ΔNFAMA fused to the DNA binding domain (Arabidopsis thaliana). Nature of the test: two-hybrid; Matchmaker 3 system, yeast AH109; DNA binding domain fusions as bait, activation domain fusions as prey; SD -Trp -Leu -His with 0.1, 0.5 and 1 mM 3-amino-1,2,4-triazole.
The target in test [7] is ΔNSPCH fused to the DNA binding domain (Arabidopsis thaliana). The description is as above.

As for “SCRMΔC fused to the activation domain (Arabidopsis thaliana) (domain or fragment)”, the binding entry in test [1] is listed as “no binding”.

Turning to “SCRMΔC-cYFP (Arabidopsis thaliana) (domain or fragment)”, the binding result in test [2] and in test [3] was “binds” in each case.

Turning to “scrm-DΔC-cYFP (Arabidopsis thaliana) (domain or fragment)”, the figures for the binding entry in test [2], in test [3] and in test [4] were “binds”, “binds” and “no binding”, respectively.

For “scrm-DΔC fused to the activation domain (Arabidopsis thaliana) (domain or fragment)”, in test [1], the binding entry is “no binding”.

B1: MUTE-nYFP (protein, UniProt Q9M8K6 1-202)
chain: T1 sequence
For the molecule B1, in test [5], the binding result is “no binding”.

B2: SCREAM (SCRM) fused to the activation domain (protein, UniProt Q9LSE2 1-494)
chain: MGLDGNNGGGVWLNGGGGEREENEEGSWGRNQEDGSSQFKPMLEGDWFSSNQPHPQDLQMLQNQPDFRYFGGFPFNPNDNLLLQHSIDSSSSCSPSQAFSLDPSQQNQFLSTNNNKGCLLNVPSSANPFDNAFEFGSESGFLNQIHAPISMGFGSLTQLGNRDLSSVPDFLSARSLLAPESNNNNTMLCGGFTAPLELEGFGSPANGGFVGNRAKVLKPLEVLASSGAQPTLFQKRAAMRQSSGSKMGNSESSGMRRFSDDGDMDETGIEVSGLNYESDEINESGKAAESVQIGGGGKGKKKGMPAKNLMAERRRRKKLNDRLYMLRSVVPKISKMDRASILGDAIDYLKELLQRINDLHNELESTPPGSLPPTSSSFHPLTPTPQTLSCRVKEELCPSSLPSPKGQQARVEVRLREGRAVNIHMFCGRRPGLLLATMKALDNLGLDVQQAVISCFNGFALDVFRAEQCQEGQEILPDQIKAVLFDTAGYAGMI
For the molecule B2, the binding entry in test [6] and in test [7] was “binds” in each case.

B3: scrm-D_(L484F) fused to the activation domain (protein, UniProt Q9LSE2 1-494)
chain: B2 chain with R236H, L484F
B3: the binding entry in test [6] and in test [7] was “binds” each time.

B4: scrm-D fused to the activation domain (protein, UniProt Q9LSE2 1-494)
chain: B2 chain with R236H
B4: the binding entry in test [6] and in test [7] was “binds” each time.

B5: SCRM_(L484F) fused to the activation domain (protein, UniProt Q9LSE2 1-494)
chain: B2 chain with L484F
For the molecule B5, the binding entry in test [6] and in test [7] was “binds” in each case.
